These results are taken from patent US20230349903A1, “ASSAYS AND REAGENTS FOR CHARACTERIZATION OF MHCI PEPTIDE BINDING” (priority 2020, published 2023).

One assay has as its target HLA-A*02:03 MHCI complex (Homo sapiens, UniProt P04439, A173T/D140Y/D185E/D98H/E277Q/G131W/G231S/I119V/I121R/I166T/I218V/L180W/L300P/L318F/N151K/N90K/P208A/P217A/Q86G/Q94H/R138H/R169H/T345S). As to the kind of experiment: 2D LC/MS analysis of peptide exchange after UV exposure. As to conditions: HLA-A*02:03 conditional MHCI complex after UV, 100-fold molar excess of exchanged peptide.

The target in a further assay is HLA-A*02:03 (Homo sapiens, UniProt P04439, A173T/D140Y/D185E/D98H/E277Q/G131W/G231S/I119V/I121R/I166T/I218V/L180W/L300P/L318F/N151K/N90K/P208A/P217A/Q86G/Q94H/R138H/R169H/T345S). As to conditions: read-out: dissociation constant KD (~IC50), IEDB value, purified MHC/competitive/radioactivity; cited from earlier work.

The structures given here were assigned with low confidence; some may be wrong.

As to `CC[C@H](C)[C@H](NC(=O)[C@H](Cc1ccccc1)NC(=O)CNC(=O)[C@H](C)NC(=O)[C@@H](NC(=O)[C@H](C)NC(=O)CNC(=O)[C@H](Cc1ccccc1)NC(=O)[C@H](CC(C)C)NC(=O)CN)[C@@H](C)CC)C(=O)O`, the “exchange peptide in EIC of the 2nd dimension (peptide exchange)” value at HLA-A*02:03 MHCI complex is given as “a large peak corresponding to the extracted mass of the A0203-05 peptide was observed”. Also, the Kd on HLA-A*02:03 was 1 nM.
